The values that follow come from ChEMBL document CHEMBL1133989, “Which aminoglycoside ring is most important for binding? A hydropathic analysis of gentamicin, paromomycin, and analogues” (Bioorg Med Chem Lett, 2001).

SMILES strings stand for the structures.

The subject of this test is Ribosomal RNA A-site. In words: Binding affinity of aminoglycoside to 16S ribosomal RNA A-site in Escherichia coli. In kind it is nucleic-acid assay.

Usually Kd stands for a measure of binding affinity in units of concentration. As for `CNC1C(O)C(OC2C(N)CC(N)C(OC3OC(CN)CCC3N)C2O)OCC1(C)O` (stereo unspecified) [GENTAMICIN C1A], the affinity, expressed as Kd, was 1700 nM. In other words, the single-digit micromolar range.
